Assay results published in patent US20080171774A1, “Nicotinanilides, Method for Production Thereof and Agents Comprising the Same for Prevention of Fungal Pests” (BASF Akitengesellschaft, priority 2005, published 2008).
Some of these results come from one statement about several compounds together.

Assays:
Altemaria solani = test: Activity against early blight of tomato caused by Altemaria solani (protective spray); type: in vivo; conditions: 250 mg/l, tomato cultivar Goldene Königin, sprayed 1 day before infection, visual rating after 5 days; untreated plants 64% infected
Pyrenophora teres = test: Activity against net blotch of barley caused by Pyrenophora teres, 1 day protective application; type: in vivo, Pyrenophora [syn. Drechslera] teres; conditions: 250 mg/l, barley seedlings cultivar Hanna, inoculated 24 h after spraying, visual rating after 6 days in % of leaf surface; untreated plants 80% infected

SMILES | infection (Altemaria solani) | infection (Pyrenophora teres)
O=C(Nc1ccccc1-c1ccc(Cl)c(Cl)c1)c1cccnc1C(F)(F)F [Compound 21.7, N-(3′,4′-Dichlorobiphenyl-2-yl)-2-(trifluoromethyl)nicotinamide] | at most 20% | at most 15%
O=C(Nc1ccccc1-c1ccc(Cl)c(F)c1)c1cccnc1Cl [Compound 21.4, 2-chloro-N-(4′-chloro-3′-fluorobiphenyl-2-yl)nicotinamide] | at most 20% | at most 15%
O=C(Nc1ccccc1-c1cc(Cl)cc(Cl)c1)c1cccnc1Cl [Compound 21.2, 2-chloro-N-(3′,5′-dichlorobiphenyl-2-yl)nicotinamide] | at most 20% | at most 15%
O=C(Nc1ccccc1-c1ccc(Cl)c(Cl)c1)c1cccnc1Cl [Compound 21.1, 2-chloro-N-(3′,4′-dichlorobiphenyl-2-yl)nicotinamide] | at most 20% | at most 15%
O=C(Nc1ccccc1-c1ccc(F)c(Cl)c1)c1cccnc1Cl [Compound 21.3, 2-chloro-N-(3′-chloro-4′-fluorobiphenyl-2-yl)nicotinamide] | at most 20% | at most 15%
O=C(Nc1ccccc1-c1ccc(F)c(F)c1)c1cccnc1Cl [Compound 21.5, 2-chloro-N-(3′,4′-difluorobiphenyl-2-yl)nicotinamide] | at most 20% | at most 15%
